For some of these results: For at least one compound, name, drawing or mass did not settle the structure. Some results were stated once for a whole list of compounds, not compound by compound.
Key:
A375 cells = assay: Cell viability / cytotoxicity by sulforhodamine B (SRB) assay in A375 cells; settings: 10 nM dabrafenib, 2 nM trametinib or the combination, 72 hours
Protocol: Each study was performed three times independently.

SK-MEL-28 cells = assay: Cell viability / cytotoxicity by sulforhodamine B (SRB) assay in SK-MEL-28 cells; settings: 10 nM dabrafenib, 2 nM trametinib or the combination, 72 hours
[1] = system: Mcl-1, cleaved caspase 3 and cleaved PARP; assay: Western blotting for Mcl-1, cleaved caspase 3 and cleaved PARP in A375 and SK-MEL-28 cells; assay type: cell-based; settings: 0.4 μM vemurafenib 72 hours, alone or with 500 nM TW-37
A375-R cells [2] = assay: Tumor therapy: A375-R xenografts in athymic nude mice; assay type: in vivo
Protocol: (§1) FIG. 5A, A375-R cells were injected subcutaneously in female athymic nude mice. Once the tumor volume reach 150 mm3, the mice were randomly divided into 4 groups (n=7 in each group) and the treatment was started as described under ‘Material and Method’ section. Tumor volumes were measure thrice a week by vernier calipers and the values were plotted as Mean±S.E.M. FIG. 5B, at day 30, the mice were sacrifice, tumors were extracted and weighed. The values are plotted as mean±S.D. *, p<0.05 as compared to control. #, p<0.05 as compared to vemurafenib treated group. $, p<0.05 as compared to TW-37 treated group. […] FIG. 5D, Formalin fixed paraffin embedded tumor sections were subjected to immunohistochemistry. Representative images of the tumor sections stained with Mcl-1, p-ERK and cleaved caspase 3.
FIGS. 6A to 6D show silencing Mcl-1 suppresses the growth of melanoma tumors resistance to vemurafenib. FIG. 6A, A375-R cells were injected subcutaneously in female athymic nude mice. Once the tumor volume reach 150 mm3, the mice were randomly divided into 4 groups (n=6 in each group) and the treatment was started as described under ‘Material and Method’ section. […]
(§2) Tumor Therapy. […] Tumor measurements were taken thrice a week by vernier calipers and the volume was calculated by the formula V=length*(breadth)2/2 as previously described (28-30). […]

[3] = system: SK-MEL-28 cells transfected with Mcl-1 plasmid; assay: SRB cell survival in SK-MEL-28 cells transfected with Mcl-1 plasmid; assay type: cell-based; settings: SK-MEL-28 cells overexpressing Mcl-1 (transient), 0.2 μM vemurafenib, 72 hours
Protocol: FIG. 3A (A375 cells) and FIG. 3B SK-MEL-28 cells untransfected or transfected with Mcl-1 plasmid were treated with 0.2 μM and 0.4 μM vemurafenib for 72 hours. The cell survival was evaluated by sulforhodamine B assay. […] FIG. 3E A375 and A375-Mcl-1+/+ or FIG. 3F, SK-MEL-28 and SK-MEL-28-Mcl-1+/+ were treated with 0.2 μM and 0.4 μM vemurafenib for 72 hours. The cell survival was evaluated by sulforhodamine B assay.
FIG. 8A (A375) and FIG. 8B (SK-MEL-28) untransfected or transfected with Mcl-1 plasmid were treated with 10 nM dabrafenib or 2 nM trametinib for 72 hours. FIG. 8C A375 and FIG. 8D SK-MEL 28 cells untransfected or transfected with Mcl-1 plasmid were treated with 400 nM vemurafenib or 2 nM trametinib for 72 hours. The cell survival was evaluated by sulforhodamine B assay.
Mcl-1 overexpression. A375 or SK-MEL-28 cells were transiently or stably transfected with plasmid overexpressing Mcl-1 by nucleofection kit (Lonza, Basel, Switzerland) according to manufacturer's protocol and previously described by the inventors (26). Briefly, 2×10^6 cells were suspended in a reaction mixture from the kit specific to the cell line (Kit V for A375 and Kit R for SK-MEL-28 cells). The cells were transferred to the cuvettes and nucleofected using the nucleofector instrument (Amaxa, Cologne, Germany). […]

SK-MEL-28-R cells = assay: SRB cell survival in vemurafenib resistant SK-MEL-28-R cells; assay type: cell-based; settings: 0.4 μM vemurafenib
Protocol: (§3) Each study was performed three times independently. Mcl-1 inhibitor overcomes vemurafenib resistance in melanoma cells. […] The cell survival was evaluated by sulforhodamine B assay.
(§4) FIGS. 4A to 4D show the silencing Mcl-1 reverses vemurafenib resistance. […] The cell survival was evaluated by sulforhodamine B assay.
(§5) Generation of BRAF-inhibitor resistant cell lines. Vemurafenib resistant clones of A375 and SK-MEL-28 were generated by continuous exposure of cells to escalating concentrations of vemurafenib over a period of one year. The cells were treated with vemurafenib for 72 hours after which fresh media was added to the cells. In all, cells were exposed weekly to two treatments of vemurafenib for 72 hours each with a 24 hour recovery period between the treatments. […] Similarly, dabrafenib resistant cells were cultured by incubating the cells with increasing concentrations of the drug for a period of 3 months as described above. The fold resistant was intermittently evaluated by cytotoxicity analysis. Vemurafenib resistant cell lines were referred to as SK-MEL-28-R or A375-R and dabrafenib resistant cell lines were referred to as A375-DR, SK-MEL-28-DR or WM-239-DR. […] Here, A375 cells were injected subcutaneously in nude mice. When palpable tumors were formed, the mice were orally treated with 30 mg/kg vemurafenib twice a day. […]

Mcl-1 [4] = assay: Western blotting and immunohistochemistry of A375-R tumors; set-up: species or system mice; settings: A375-R tumors at termination of the in vivo studies, compared with control group
Protocol: as §1
FIGS. 6A to 6D show silencing Mcl-1 suppresses the growth of melanoma tumors resistance to vemurafenib. FIG. 6A, A375-R cells were injected subcutaneously in female athymic nude mice. […]
as §2
Immunohistochemistry. Expression of Mcl-1, Cleaved Caspase 3 and p-ERK in tumor samples were analyzed by immunohistochemistry in paraffin sections five mice from each group. […]

SK-MEL-28-Mcl-1+/+ cells = assay: SRB cell survival in SK-MEL-28-Mcl-1+/+ cells (stable overexpression of Mcl-1); assay type: cell-based; settings: 0.2 μM vemurafenib, 72 hours
A375-R cells [5] = assay: SRB cell survival in vemurafenib resistant A375-R cells; assay type: cell-based; settings: 0.4 μM vemurafenib
Protocol: as §3, §4, §5

Mcl-1 [6] = assay: Western blotting for Mcl-1 expression in melanoma cells treated with dabrafenib and trametinib; assay type: cell-based; settings: A375, SK-MEL-28, SK-MEL-5 and WM-239 cells, 72 hours; dabrafenib 10 nM
Protocol: A375, SK-MEL-28, SK-MEL-5 and WM-239 were treated (FIG. 7A) dabrafenib and trametinib and (FIG. 7B) vemurafenib and trametinib for 72 hours. Following the treatment, Mcl-1 expression was analyzed by western blotting.
A combination of BRAF inhibitor (dabrafenib) and MEK1/2 inhibitor (trametinib) for the treatment of late phase malignant melanoma has been approved by the FDA.

Compound	Reduction of cell survival (A375 cells)	Reduction of cell survival (SK-MEL-28 cells)	Cleavage of caspase 3 and PARP (western blot) [1]	Reduction in tumor growth (tumor volume) as compared to control (A375-R cells [2]; day 30, versus control group)	Reduction of tumor weight as compared to control (A375-R cells [2]; tumors weighed at day 30, versus control)	Reduction of cell survival [3]	Effect on cell survival (SK-MEL-28-R cells)	Expression of Mcl-1 in tumors (western blotting and immunohistochemistry) (Mcl-1 [4])	Reduction of cell survival (SK-MEL-28-Mcl-1+/+ cells)	Effect on cell survival (A375-R cells [5])	Expression of Mcl-1 (western blotting) (Mcl-1 [6])
CC(C)(C)c1nc(-c2cccc(NS(=O)(=O)c3c(F)cccc3F)c2F)c(-c2ccnc(N)n2)s1 [dabrafenib]	60-70%	60-70%	–	–	–	–	–	–	–	–	–
CCCS(=O)(=O)Nc1ccc(F)c(C(=O)c2c[nH]c3ncc(-c4ccc(Cl)cc4)cc23)c1F [vemurafenib]	–	–	significant cleavage of caspase 3 and PARP	did not respond	no difference	completely unaffected	minimal effect	significantly higher expression of Mcl-1	no change	negligible effect	–
CC(=O)Nc1cccc(-n2c(=O)n(C3CC3)c(=O)c3c(Nc4ccc(I)cc4F)n(C)c(=O)c(C)c32)c1 [trametinib]	60-70%	60-70%	–	–	–	–	–	–	–	–	induced Mcl-1 expression

Source: US10463649B2, “Inhibitors of Mc1-1 as drugs to overcome resistance to BRAF inhibitors and MEK inhibitors” (Texas Tech University System, priority 2015, dated 2019)
